Reference: paper PMC4359255
Results are given in words; binding and its absence hold for the method and conditions named. Binding seen in cells or lysates may run through a third protein. Some binding calls cover weakened binding; strength is not graded here.

Sequences of proteins named here, by UniProt entry; tags and fusion partners are left off. A change or cut given only in a name is not applied to a line headed by its entry.
UniProt Q03135: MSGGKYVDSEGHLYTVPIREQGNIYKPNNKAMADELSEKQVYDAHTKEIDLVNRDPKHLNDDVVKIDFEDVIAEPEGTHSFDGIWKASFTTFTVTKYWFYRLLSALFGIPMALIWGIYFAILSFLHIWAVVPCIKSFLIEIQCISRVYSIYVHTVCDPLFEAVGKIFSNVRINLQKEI
UniProt P25445: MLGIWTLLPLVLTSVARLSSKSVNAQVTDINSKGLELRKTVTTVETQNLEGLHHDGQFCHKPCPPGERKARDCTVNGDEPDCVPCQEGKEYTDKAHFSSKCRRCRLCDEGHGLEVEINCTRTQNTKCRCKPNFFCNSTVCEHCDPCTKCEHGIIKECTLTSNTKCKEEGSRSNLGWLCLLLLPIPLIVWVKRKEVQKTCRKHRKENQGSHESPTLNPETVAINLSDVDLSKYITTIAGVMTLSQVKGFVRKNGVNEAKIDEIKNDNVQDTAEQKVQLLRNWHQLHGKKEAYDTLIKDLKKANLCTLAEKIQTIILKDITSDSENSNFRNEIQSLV

Assays:
Test in all cases: co-IP; endogenous proteins of A549 cells treated with 50 uM RSV for the indicated times (with or without 3-MA pre-treatment or P62 siRNA); RIPA lysate, 1 mg total lysate with 2 ug of P62, Fas or Cav-1 antibody and Dynabeads protein G at 4 C; detected by western blot; purified IgG as control
[1] = target: Caveolin-1 (Cav-1) (human (endogenous in A549)) (UniProt Q03135)
[2] = target: P62 protein, also called sequestosome 1 (SQSTM1) (human (endogenous in A549)) (UniProt Q13501)
[3] = target: Fas (human (endogenous in A549)) (UniProt P25445)

Row | Substance | binding [1] | binding [2] | binding [3]
1 | Fas (from UniProt P25445 26-335) (receptor) | binds | binds | 
2 | Caveolin-1 (Cav-1) (from UniProt Q03135 1-178) |  | binds | binds
